From paper PMC5045167

Chains of the proteins cited; added tags and fusions are not shown. A line that says so, or that is headed by a name, gives the form on record, which may keep a tag or linker.
CST(WT) (CTC1-STN1-TEN1) (human), one chain, as listed by the source, chain 2 of 3: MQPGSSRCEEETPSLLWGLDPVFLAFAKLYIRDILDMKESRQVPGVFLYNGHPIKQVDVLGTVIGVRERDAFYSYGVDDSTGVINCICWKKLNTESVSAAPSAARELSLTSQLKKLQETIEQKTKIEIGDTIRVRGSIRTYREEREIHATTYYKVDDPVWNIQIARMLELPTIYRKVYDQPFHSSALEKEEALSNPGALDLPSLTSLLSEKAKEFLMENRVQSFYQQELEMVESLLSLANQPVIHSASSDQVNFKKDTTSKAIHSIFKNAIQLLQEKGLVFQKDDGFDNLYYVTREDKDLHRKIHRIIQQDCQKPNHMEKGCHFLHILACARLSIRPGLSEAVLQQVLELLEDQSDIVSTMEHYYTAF
CST(STN1-OBM) W89A,R139L,Y141A (human), one chain, as listed by the source W89A R139L Y141A, chain 2 of 3: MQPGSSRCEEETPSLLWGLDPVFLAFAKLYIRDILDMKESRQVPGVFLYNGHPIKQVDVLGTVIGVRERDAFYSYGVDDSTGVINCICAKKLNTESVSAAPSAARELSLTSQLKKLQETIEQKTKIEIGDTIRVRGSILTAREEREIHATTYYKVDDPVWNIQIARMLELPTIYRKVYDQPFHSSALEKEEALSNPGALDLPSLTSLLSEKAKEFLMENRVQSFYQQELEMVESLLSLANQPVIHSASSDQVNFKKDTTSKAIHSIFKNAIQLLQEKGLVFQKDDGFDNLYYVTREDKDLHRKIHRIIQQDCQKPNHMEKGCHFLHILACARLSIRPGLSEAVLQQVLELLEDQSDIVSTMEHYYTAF

Assays:
[1] = tested on: CST(STN1-OBM) W89A,R139L,Y141A (human); assay: EMSA; conditions: 25 mM Tris pH 8.0, 1 mM DTT, 150 mM NaCl, EMSA 0.1 nM DNA, 30 min RT, filter binding 0.01 nM DNA, 18 h 4 C, crosslinking 20 nM CST, 2 nM DNA, UVA on ice, recombinant protein, protein details: N-terminal FLAG-CTC1, His-STN1-OBM, TEN1 untagged, label: 32P, single-stranded DNA
[2] = tested on: CST(WT) (CTC1-STN1-TEN1) (human); assay: EMSA; conditions: s4T does not significantly alter binding, 25 mM Tris pH 8.0, 1 mM DTT, 150 mM NaCl, EMSA 0.1 nM DNA, 30 min RT, filter binding 0.01 nM DNA, 18 h 4 C, crosslinking 20 nM CST, 2 nM DNA, UVA on ice, recombinant protein, label: 32P, single-stranded DNA, letters put together from the description
[3] = tested on: CST(STN1-OBM) W89A,R139L,Y141A (human); assay: UV crosslinking; conditions: 25 mM Tris pH 8.0, 1 mM DTT, 150 mM NaCl, filter binding 0.01 nM DNA, 18 h 4 C, crosslinking 20 nM CST, 2 nM DNA, UVA on ice, recombinant protein, protein details: N-terminal FLAG-CTC1, His-STN1-OBM, TEN1 untagged, label: 32P, single-stranded DNA, letters put together from the description
[4] = tested on: CST(STN1-OBM) W89A,R139L,Y141A (human); assay: filter binding; conditions: 25 mM Tris pH 8.0, 1 mM DTT, 150 mM NaCl, filter binding 0.01 nM DNA, 18 h 4 C, crosslinking 20 nM CST, 2 nM DNA, UVA on ice, recombinant protein, protein details: N-terminal FLAG-CTC1, His-STN1-OBM, TEN1 untagged, label: 32P, single-stranded DNA
[5] = 4-thiothymidine at position 3 (third nt from 5' end)

GGTTAGGGTTAGGGTTAG [5'-s4T TelG-18]
binding result ([1]; s4T does not significantly alter binding, unmodified TelG-18 is weaker than WT, 4-thiothymidine at position 3 (third nt from 5' end), letters put together from the description): binds more weakly
binding result [2, 5]: binds

GGTTAGGGTTAGGGTTAG [3'-s4T TelG-18]
binding result ([3]; STN1 crosslink reduced vs WT, 4-thiothymidine at position 16 (third nt from 3' end)): binds more weakly
binding result ([1]; s4T does not significantly alter binding, unmodified TelG-18 is weaker than WT, 4-thiothymidine at position 16 (third nt from 3' end), letters put together from the description): binds more weakly
binding result ([2]; 4-thiothymidine at position 16 (third nt from 3' end)): binds

GGTTAGGGTTAGGGTTAGGGTTAGGGTTAGGGTTAGGGTTAGGGTTAG [3'-s4T TelG-48]
binding result ([3]; STN1 and TEN1 crosslinks reduced, CTC1 crosslink still formed, 4-thiothymidine at position 46 (third nt from 3' end)): binds more weakly
binding result ([1]; s4T does not significantly alter binding, 4-thiothymidine at position 46 (third nt from 3' end), letters put together from the description): binds
binding result ([2]; 4-thiothymidine at position 46 (third nt from 3' end)): binds

GGTTAGGGTTAGGGTTAGGGTTAGGGTTAGGGTTAGGGTTAGGGTTAG [5'-s4T TelG-48]
binding result ([1]; s4T does not significantly alter binding, 4-thiothymidine at position 3 (third nt from 5' end), letters put together from the description): binds
binding result [2, 5]: binds

AGCGTATCCGTTCAGTTGAGCGTATCCGTTCAGTTG [NonTel-36]
binding result [1]: binds more weakly
binding result ([4]; dissociates 1.6-2.6-fold faster than CST(WT) (range for TelG-18 and NonTel-36)): binds more weakly

GGTTAGGGTTAGGGTTAG [TelG-18]
binding result ([1]; 0.5-20 nM CST): binds more weakly
binding result ([4]; 4 C, 18 h): binds more weakly

Construct, isoform or probe ends are uncertain for at least one entry. For some assays here: The comparison behind a weaker result is the experiment's own reference, which may not be listed here. For some assays here: At least one verdict was read from the data and is not stated in words by the source.
